Measurements: paper PMC7392027
No constants are given. Whether binding was seen depends on the method and setting. Binding seen in cells or lysates may run through a third protein. Some binding calls cover weakened binding; strength is not graded here. Where a sequence is shown, tags or fusion partners need not be part of it.

By UniProt entry, the sequences of proteins in these tests, tags left out.
UniProt P09651: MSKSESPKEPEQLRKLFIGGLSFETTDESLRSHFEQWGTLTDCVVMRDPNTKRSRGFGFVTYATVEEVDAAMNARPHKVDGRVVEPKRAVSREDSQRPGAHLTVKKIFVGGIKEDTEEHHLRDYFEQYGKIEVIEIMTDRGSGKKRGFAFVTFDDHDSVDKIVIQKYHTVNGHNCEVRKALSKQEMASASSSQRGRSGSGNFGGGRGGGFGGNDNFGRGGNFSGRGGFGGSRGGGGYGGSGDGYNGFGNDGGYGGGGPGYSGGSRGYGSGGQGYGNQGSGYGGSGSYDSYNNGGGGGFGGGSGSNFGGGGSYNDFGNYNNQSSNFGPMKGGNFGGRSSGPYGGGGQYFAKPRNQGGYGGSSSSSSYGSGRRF

Target: hnRNP A1-HA (UniProt P09651)
Assay: co-IP; ZFP91-Flag and hnRNP A1-HA plasmids transfected into HCC cells (MHCC-LM3: anti-Flag IP; SK-hep1: anti-HA IP), 48 h; protein A/G agarose beads; Western blot

B1: ZFP91-Flag (enzyme, UniProt Q96JP5 1-570)
chain: MPGETEEPRPPEQQDQEGGEAAKAAPEEPQQRPPEAVAAAPAGTTSSRVLRGGRDRGRAAAAAAAAAVSRRRKAEYPRRRRSSPSARPPDVPGQQPQAAKSPSPVQGKKSPRLLCIEKVTTDKDPKEEKEEEDDSALPQEVSIAASRPSRGWRSSRTSVSRHRDTENTRSSRSKTGSLQLICKSEPNTDQLDYDVGEEHQSPGGISSEEEEEEEEEMLISEEEIPFKDDPRDETYKPHLERETPKPRRKSGKVKEEKEKKEIKVEVEVEVKEEENEIREDEEPPRKRGRRRKDDKSPRLPKRRKKPPIQYVRCEMEGCGTVLAHPRYLQHHIKYQHLLKKKYVCPHPSCGRLFRLQKQLLRHAKHHTDQRDYICEYCARAFKSSHNLAVHRMIHTGEKPLQCEICGFTCRQKASLNWHMKKHDADSFYQFSCNICGKKFEKKDSVVAHKAKSHPEVLIAEALAANAGALITSTDILGTNPESLTQPSDGQGLPLLPEPLGNSTSGECLLLEAEGMSKSYCSGTERVSLMADGKIFVGSGSSGGTEGLVMNSDILGATTEVLIEDSDSAGP
  binding: binds
